Experimental data: PubChem BioAssay AID686943 (Drosophila RNAi Screening Center, 2013)
The screen tested about 23,000 reagents; this is an unselected part of those that have a named target and a result. 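Extra replicates exist only for a retested subset of genes; insulin dose and duration not given; both raised and lowered dpERK matter.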 The numbers tell different reagents against one gene apart. Names joined by + are all predicted targets of the reagent. Further read-outs or replicates are left out here. Not stated in the record: the amount of reagent, the time to read-out.

- Test: 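Knockdowns that increase or decrease active ERK after insulin receptor stimulation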 (primary screen)
- System: Drosophila S2R+ haemocyte-like cells expressing YFP-tagged ERK (Rolled)
- Knock-down reagent: long dsRNA against Drosophila genes
- Conditions: insulin stimulation versus unstimulated cells; dose and duration not given
- Read-out: 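Per-plate z-scores of phospho-ERK immunostaining normalised to YFP-tagged ERK, measured with and without insulin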
- Scale: replicate 1, z-score of dpERK with insulin: higher = more active ERK per ERK-YFP after insulin

For Polr2E, the values are replicate 1, z-score of dpERK with insulin 2.1. CG33107 showed replicate 1, z-score of dpERK with insulin 0.32. CG7083 showed replicate 1, z-score of dpERK with insulin 0.3. XNP gave replicate 1, z-score of dpERK with insulin 0.02. With knock-down of sv, the screen gave replicate 1, z-score of dpERK with insulin -0.28. Srx showed replicate 1, z-score of dpERK with insulin 0.16.

Knock-down of CG12081 came out at: replicate 1, z-score of dpERK with insulin 0.12. Knock-down of CG15203 came out at: replicate 1, z-score of dpERK with insulin 0.31. Knock-down of Hs6st #1 gave: replicate 1, z-score of dpERK with insulin 0.65. Hs6st #2 showed replicate 1, z-score of dpERK with insulin 0.55. Hs6st #3 showed replicate 1, z-score of dpERK with insulin -0.58. Hs6st #4 gave replicate 1, z-score of dpERK with insulin -3.83.

CG8584 gave replicate 1, z-score of dpERK with insulin 0.18. With knock-down of CG12069, the record shows replicate 1, z-score of dpERK with insulin 0.39. Against Cp7Fa #1, the entry reads replicate 1, z-score of dpERK with insulin -0.4. Depletion of Cp7Fa #2 resulted in: replicate 1, z-score of dpERK with insulin 0. For RpL17, the values are replicate 1, z-score of dpERK with insulin -2.59. Knock-down of Keap1 gave: replicate 1, z-score of dpERK with insulin 0.32.

Nmdar2 #1 scored replicate 1, z-score of dpERK with insulin 0.79. After knock-down of Nmdar2 #2, the screen gave replicate 1, z-score of dpERK with insulin 1.47. Depletion of Nmdar2 #3 resulted in: replicate 1, z-score of dpERK with insulin 0.92. Sap-r #1 showed replicate 1, z-score of dpERK with insulin 0.39. Against Sap-r #2, the values are replicate 1, z-score of dpERK with insulin -0.06. bug scored replicate 1, z-score of dpERK with insulin 0.4.

Depletion of upd2 resulted in: replicate 1, z-score of dpERK with insulin 0.88. Knock-down of Gasp resulted in: replicate 1, z-score of dpERK with insulin -0.72. Knock-down of Ctr1B + Poxm resulted in: replicate 1, z-score of dpERK with insulin 0.26. With knock-down of Uros1, the screen gave replicate 1, z-score of dpERK with insulin 0.66. With knock-down of Ranbp21, the record shows replicate 1, z-score of dpERK with insulin 0.28. For TH1, the values are replicate 1, z-score of dpERK with insulin 1.22.

With knock-down of CG14118 the results were replicate 1, z-score of dpERK with insulin -0.24. Silencing of CG9394 resulted in: replicate 1, z-score of dpERK with insulin 1.16. For Trf4, the values are replicate 1, z-score of dpERK with insulin 0.89. Depletion of rha resulted in: replicate 1, z-score of dpERK with insulin -0.36. After knock-down of CG14767 the results were replicate 1, z-score of dpERK with insulin 0.12. CG13288 showed replicate 1, z-score of dpERK with insulin 0.94.

With knock-down of CG18294 + 825-Oak + CG32214 + 2 more the results were replicate 1, z-score of dpERK with insulin -0.11. AP-1sigma gave replicate 1, z-score of dpERK with insulin 0.41. After knock-down of wts, the screen gave replicate 1, z-score of dpERK with insulin -0.64. Knock-down of CG43376 gave: replicate 1, z-score of dpERK with insulin 0.96.

In a second layout: entries from further up.
Hs6st #2
- replicate 1, z-score of dpERK with insulin: 0.55

Hs6st #3
- replicate 1, z-score of dpERK with insulin: -0.58

Hs6st #4
- replicate 1, z-score of dpERK with insulin: -3.83

CG8584
- replicate 1, z-score of dpERK with insulin: 0.18

CG12069
- replicate 1, z-score of dpERK with insulin: 0.39

Cp7Fa #1
- replicate 1, z-score of dpERK with insulin: -0.4
